According to patent US8906897B2, “Antimicrobial agents based on hemin derivatives” (Obschestvo S Ogranichennoi Otvetstvennostiyu …, priority 2009, dated 2014):
≈ marks a conversion by molar mass, not a printed value. For part of these data: For at least one compound, name, drawing or mass did not settle the structure. Some entries share one result that the patent states for a list of compounds. Non-standard residues stand in square brackets, D forms with d. Residues, ends and D or L forms follow the SMILES beside them. Orn = NCCC[C@H](N)C(=O)O

Key:
[1] = tested on: human leukocytes; assay: Cytotoxic activity against human leukocytes; conditions: 3 h incubation
Experimental: Total leukocytes were isolated from human blood by unforced sedimentation using freshly collected venous blood from a healthy donor.
Blood (10 mL) added with 10 units/mL heparin was exposed for 2.5 h in the dark at a temperature of 15 to 18° C. A light-colored liquid supernatant (4 mL) was collected over the layer of sedimenting erythrocytes, washed three times with balanced Hanks's salt solution, and resuspended in the RPMI-1640 medium (added with 8% fetal bovine serum, 2 mM L-glutamine, and 10 mM HEPES; hereinafter, the complete medium).
The concentrations of leukocytes and erythrocytes in the suspension were determined by counts in Goryachev's chamber, after which the suspension was adjusted to a leukocyte concentration of (1.0±0.1)×10^6 cells/mL with the complete medium. […]
Cells were incubated with tested compounds for 3 h (37° C., 5% CO2, 100% humidity). Leukocyte death values were quantified using fluorescence microscopy. […]
The dead cell fraction was derived from the fluorescence images of cells obtained in the blue (Hoechst 33342) and red (propidium iodide) spectral ranges using an Axio Observer (Zeiss, Germany) fluorescence microscope equipped with a 10× objective lens (Plan-Neofluar 10×/0.3). The following sets of fluorescence filters were used. […]

[2] = tested on: Gram-positive bacteria; conditions: literature (J. Am. Chem. Soc., 2005); cited from earlier work
[3] = tested on: Bacillus subtilis BKM B-501; assay: Antibacterial activity (MIC/MBC), serial dilutions in liquid MH medium; assay type: cell-based; conditions: 20 h
Experimental: The antibacterial activity of compounds was determined against Bacillus subtilis BKM B-501, Staphylococcus aureus 209P, Enterococcus faecalis BKM B-871, and Micrococcus luteus BKM Ac-2230 strains (acquired from the All-Russia Collection of Microorganisms at the Institute for Biochemistry and Physiology of Microorganisms, Russian Academy of Sciences). The main parameters characterizing the antibacterial activity are the minimal inhibitory concentration (MIC) and minimal bactericidal concentration (MBC). […] MBC is the least concentration that causes the death of all cells.
MIC was quantified by inhibiting culture growth in a liquid medium with serial dilutions of compounds using a modified procedure [Amsterdam, D., “Susceptibility Testing of Antimicrobials in Liquid Media,” in Antibiotics in Laboratory Medicine, Ed. by Lorian, V., 4th ed., Baltimore: Williams and Wilkins, 1996, pp. 52-111]. […]
For testing, 5 μL of a bacterial suspension in the stationary growth phase was transferred to 1 mL of a sterile MH medium and incubated until the exponential growth phase was attained (3 to 5 h, 37° C., stirring at 150 rpm). To estimate the microorganisms concentration, the optical density (A) of the resulting bacterial culture was measured at a wavelength of 595 nm. […]

[4] = tested on: Candida albicans No. 927; assay: Antifungal activity, culture growth with pH indicator; assay type: cell-based; parameters: key: (−) No growth; the indicator is blue; (±) Weak growth; the indicator is yellow, but the precipitate of grown cells looks as a diffuse spot; (+) Strong growth; the indicator is yellow, and the cell precipitate looks as a compact spot
Experimental: (§1) The subjects of action were Cryptococcus neoformans No. 3465 museum strain cells and Candida albicans No. 927 museum strain cells grown for one day on a glucose-peptone-yeast medium at 32° C. The reference compounds were the following antimycotics: pimafucin, amphotericin, and fluconazole.
(§2) Experiments were carried out on round-bottomed 96-well plates (Lenmedpolimer) in two replicas. To the first column (0), added was 10 μL of the stock solution of a water-soluble agent with concentrations of 10^−2 to 10^−3 mol/L; to the second column, added was also the same 10 μL plus 10 μL of the solvent corresponding to the given compound, suspended, 10 μL was transferred to the next well, and so on to the 8th well of the row. Stock solutions of water-insoluble compounds of general formula (I) (compounds V, VIII, XII, XIII, XIV, and hemin) were prepared in DMSO and were diluted with DMSO and the medium. DMSO concentrations in the reaction mixture in a well were ≦5%.
(§3) Then, to every well added was 190 μL of a Cr. neoformans cell culture suspension in a synthetic nutritional medium (so that the final cell concentration was approximately 10^3 CFU/mL), this medium containing Bromocresol Blue as a pH-indicator (pH: 5.5; indicator color: blue). As pH reduced to 4.5, the indicator in the culture changed its color to yellow, thereby indicating fungal cell growth. The synthetic medium comprised the following components: salts, amino acids, microelements, vitamins, an antibiotic, and glucose (30 components altogether) [Yarrow, D., “Methods for the Isolation, Maintenance and Identification of Yeasts,” in: The Yeasts. A Taxonomic Study, Ed. by Kurtsman, C. P, and Fell, M., Elsevier, 1998, pp. 77-100]. After being inoculated with a Cr. neoformans cell suspension, the plate was incubated at 32° C. for 1 h with stirring, then transferred to a stationary thermostat and incubated for two and five days at 27° C. After being inoculated with a C. albicans cell suspension, the plates were incubated for 1 h at 32° C. with stirring, then transferred to a stationary thermostat and incubated for one and four days at 27° C.

[5] = tested on: Cryptococcus neoformans No. 3465; assay: as above; assay type: cell-based; parameters: key: (−) No growth; the indicator is blue; (±) Weak growth; the indicator is yellow, but the precipitate of grown cells looks as a diffuse spot; (+) Strong growth; the indicator is yellow, and the cell precipitate looks as a compact spot
Experimental: as §1, §2, §3

Molecule | concentration at which a weak toxic effect on leukocytes appears [1] | effective concentrations against Gram-positive bacteria [2] | MIC [3] | Test culture growth at various dilutions of the agent ([4]; dilution 0: 1 × 10^−4 M) | Test culture growth at various dilutions of the agent ([4]; dilution : 2 of 1 × 10^−4 M) | Test culture growth at various dilutions of the agent ([4]; dilution : 4 of 1 × 10^−4 M) | Test culture growth at various dilutions of the agent ([4]; dilution : 8 of 1 × 10^−4 M) | Test culture growth at various dilutions of the agent ([4]; dilution : 16 of 1 × 10^−4 M) | Test culture growth at various dilutions of the agent ([4]; dilution : 32 of 1 × 10^−4 M) | Test culture growth at various dilutions of the agent ([4]; dilution : 64 of 1 × 10^−4 M) | Test culture growth at various dilutions of the agent on day 2 ([5]; dilution 0: 5.00 × 10^−5 M) | Test culture growth at various dilutions of the agent on day 2 ([5]; dilution : 2 of 5.00 × 10^−5 M) | Test culture growth at various dilutions of the agent on day 2 ([5]; dilution : 4 of 5.00 × 10^−5 M) | Test culture growth at various dilutions of the agent on day 2 ([5]; dilution : 8 of 5.00 × 10^−5 M) | Test culture growth at various dilutions of the agent on day 2 ([5]; dilution : 16 of 5.00 × 10^−5 M) | Test culture growth at various dilutions of the agent on day 2 ([5]; dilution : 32 of 5.00 × 10^−5 M) | Test culture growth at various dilutions of the agent on day 2 ([5]; dilution : 64 of 5.00 × 10^−5 M) | Test culture growth at various dilutions of the agent on day 2 ([5]; dilution : 128 of 5.00 × 10^−5 M)
Protohemin IX 6(7)-Mono[Cyclo(Orn-Leu-D-Phe-Pro-Val)2])amide [Compound XIII] | greater than 125 μM |  |  |  |  |  |  |  |  |  |  |  |  |  |  |  |  | 
CC(C)C[C@@H]1NC(=O)[C@H](CCCN)NC(=O)[C@H](C(C)C)NC(=O)[C@@H]2CCCN2C(=O)[C@@H](Cc2ccccc2)NC(=O)[C@H](CC(C)C)NC(=O)[C@H](CCCN)NC(=O)[C@H](C(C)C)NC(=O)[C@@H]2CCCN2C(=O)[C@@H](Cc2ccccc2)NC1=O [Gramicidin S, reference compound] (cyclo(V[Orn]L[dF]PV[Orn]L[dF]P)) |  | 5 to 15 µM | 2.5 µM (≈ 2.85 µg/mL) | − | − | − | − | + | + | + | − | − | − | − | − | + | + | +
